Substitutions are numbered along the chain they refer to. Construct, isoform or probe ends are uncertain for at least one entry. At least one verdict was read from the data and is not stated in words by the source. Where a protein sequence is shown, tags need not be part of it.
Tests used:
Test in all cases: EMSA
ZCCHC4 D341A (human) = target: T1, ZCCHC4 D341A (human) (UniProt Q9H5U6); settings: EMSA: 20 mM Tris-HCl pH 7.5, 100 mM NaCl, 5% glycerol, 1 mM DTT, 4 C, 1 h; 0.3 uM RNA with 0-1.2 uM protein unless noted; 6% TBE native gel; recombinant …; residues 24-513; protein details: His6-SUMO removed by ULP1; label: none (SYBR Gold stain)
T1 sequence (looked up): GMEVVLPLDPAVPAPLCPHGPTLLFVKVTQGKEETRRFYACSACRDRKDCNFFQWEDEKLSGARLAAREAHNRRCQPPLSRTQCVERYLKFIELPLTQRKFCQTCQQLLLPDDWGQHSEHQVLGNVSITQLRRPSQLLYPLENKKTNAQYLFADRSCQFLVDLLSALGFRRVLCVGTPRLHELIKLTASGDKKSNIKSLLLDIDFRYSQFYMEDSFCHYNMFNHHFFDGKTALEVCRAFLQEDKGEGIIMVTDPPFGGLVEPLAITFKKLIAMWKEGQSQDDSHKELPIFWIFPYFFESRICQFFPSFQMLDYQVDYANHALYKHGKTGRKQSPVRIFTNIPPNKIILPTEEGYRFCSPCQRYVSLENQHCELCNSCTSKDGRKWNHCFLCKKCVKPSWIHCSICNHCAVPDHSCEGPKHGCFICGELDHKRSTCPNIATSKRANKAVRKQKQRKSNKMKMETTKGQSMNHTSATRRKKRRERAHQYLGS

ZCCHC4 F319A (human) = target: T2, ZCCHC4 F319A (human) (UniProt Q9H5U6); settings: 0.3 uM protein, 0.6 uM RNA; EMSA: 20 mM Tris-HCl pH 7.5, 100 mM NaCl, 5% glycerol, 1 mM DTT, 4 C, 1 h; 0.3 uM RNA with 0-1.2 uM protein unless noted; 6% TBE native gel; recombinant protein; residues 24-513; protein details: His6-SUMO removed by ULP1; label: none (SYBR Gold stain)
T2 sequence (looked up): T1 sequence (looked up) with F296A, A318D

ZCCHC4 F48A (human) = target: T3, ZCCHC4 F48A (human) (UniProt Q9H5U6); settings: 0.3 uM protein, 0.6 uM RNA; EMSA: 20 mM Tris-HCl pH 7.5, 100 mM NaCl, 5% glycerol, 1 mM DTT, 4 C, 1 h; 0.3 uM RNA with 0-1.2 uM protein unless noted; 6% TBE native gel; recombinant protein; residues 24-513; protein details: His6-SUMO removed by ULP1; label: none (SYBR Gold stain)
T3 sequence (looked up): T1 sequence (looked up) with F25A, A318D

ZCCHC4 F76A (human) = target: T4, ZCCHC4 F76A (human) (UniProt Q9H5U6); settings: 0.3 uM protein, 0.6 uM RNA; EMSA: 20 mM Tris-HCl pH 7.5, 100 mM NaCl, 5% glycerol, 1 mM DTT, 4 C, 1 h; 0.3 uM RNA with 0-1.2 uM protein unless noted; 6% TBE native gel; recombinant protein; residues 24-513; protein details: His6-SUMO removed by ULP1; label: none (SYBR Gold stain)
T4 sequence (looked up): T1 sequence (looked up) with F53A, A318D

ZCCHC4 K416A (human) = target: T5, ZCCHC4 K416A (human) (UniProt Q9H5U6); settings: 0.3 uM protein, 0.6 uM RNA; EMSA: 20 mM Tris-HCl pH 7.5, 100 mM NaCl, 5% glycerol, 1 mM DTT, 4 C, 1 h; 0.3 uM RNA with 0-1.2 uM protein unless noted; 6% TBE native gel; recombinant protein; residues 24-513; protein details: His6-SUMO removed by ULP1; label: none (SYBR Gold stain)
T5 sequence (looked up): T1 sequence (looked up) with A318D, K393A

Measured: binding result

CGGUACACCUGUCAAACGGUAACGCAGGUG [30-mer 28S rRNA]
binds: all assays above

From article PMC6834594, “Structure and regulation of ZCCHC4 in m^6A-methylation of 28S rRNA” (Nature Communications, 2019)
